Measurements reported in PubChem BioAssay AID652259 (Drosophila RNAi Screening Center, 2013)
Screen: 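Knock-downs that push a Wingless-driven reporter up or down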 (primary screen). Cell system: Drosophila clone 8 imaginal disc epithelial cells. Knock-down reagent: long dsRNA against Drosophila genes. Challenge: pathway stimulated by co-transfected Wingless expression plasmid. Detection: 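Firefly luciferase from a tcf-site Wingless reporter, measured alongside co-transfected Renilla luciferase that tracks transfection; pathway stimulated by a Wingless plasmid; the firefly-to-Renilla ratio is not deposited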. Reading the numbers: firefly reporter light: higher = more Wg reporter light, before normalisation; Renilla control light: higher = more transfected or surviving cells. Rule for the call: 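a knock-down is a candidate when at least two out of four statistical tests show it departing from its plate mean; one test alone signals a weak candidate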. Calls: active = candidate regulator (raises or lowers reporter); inactive = not a candidate.
The screen tested about 22,000 reagents; shown is an unselected part of those that have a named target and a result. Of all reagents, 233 (1.1%) are marked active. 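Light values are raw, unnormalised plate reads; the ratio scores behind the reporter calls were not deposited.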 Names joined by + are all predicted targets of the reagent. No sequences are given here. The record does not give: the amount of reagent, the time to read-out, the dose of the treatment.

| predicted target | DRSC id | reporter change call, replicate 1 | firefly reporter light, replicate 1 | firefly reporter light, replicate 2 | Renilla control light, replicate 1 | Renilla control light, replicate 2 | outcome |
| --- | --- | --- | --- | --- | --- | --- | --- |
| Slc25A46a | DRSC20125 | – | 2225 | 7020 | 1056 | 2432 | inactive |
| CG14174 | DRSC10175 | – | 4121 | – | 1883 | – | inactive |
| mAChR-C (muscarinic Acetylcholine Receptor, C-type) | DRSC17890 | – | 19574 | – | 9056 | – | inactive |
| CG1421 | DRSC03707 | – | 2323 | 6148 | 647 | 2185 | inactive |
| ND-B14.5AL (NADH dehydrogenase (ubiquinone) B14.5 A subunit-like) | DRSC11795 | – | 14875 | – | 5235 | – | inactive |
| ninaE (neither inactivation nor afterpotential E) | DRSC17014 | – | 14101 | – | 3142 | – | inactive |
| CG32189 | DRSC09511 | – | 3632 | – | 1563 | – | inactive |
| CG1137 | DRSC12529 | – | 9030 | – | 2498 | – | inactive |
| CG33725 | DRSC09183 | – | 2896 | – | 1521 | – | inactive |
| Con (Connectin) | DRSC08652 | – | 2374 | – | 1079 | – | inactive |
| Aatf (Apoptosis antagonizing transcription factor) | DRSC02131 | – | 1786 | 5352 | 985 | 3122 | inactive |
| CG34348 | DRSC19425 | – | 18732 | – | 9209 | – | inactive |
| CG34348 | DRSC19644 | – | 22973 | – | 9895 | – | inactive |
| speck | DRSC04608 | – | 7988 | – | 2839 | – | inactive |
| TrpRS-m (Tryptophanyl-tRNA synthetase, mitochondrial) | DRSC10848 | – | 3930 | – | 1445 | – | inactive |
| CG31729 | DRSC02524 | – | 13994 | – | 3690 | – | inactive |
| CG31729 | DRSC02946 | – | 2992 | 10465 | 864 | 4689 | inactive |
| CG6294 + CG6299 + CG15642 | DRSC19981 | – | 23676 | – | 10051 | – | inactive |
| Or22b (Odorant receptor 22b) | DRSC00765 | – | 2264 | 7429 | 941 | 2673 | inactive |
| Ns1 (Nucleostemin 1) | DRSC15529 | – | 8370 | – | 1901 | – | inactive |
| KrT95D (Krueppel target at 95D) | DRSC16725 | – | 1484 | 5728 | 476 | 2428 | inactive |
| Ror | DRSC03414 | – | 2995 | 8067 | 1067 | 4321 | inactive |
| CG13202 | DRSC06326 | – | 7632 | – | 2996 | – | inactive |
| Tep2 (Thioester-containing protein 2) | DRSC02679 | – | 2076 | 6340 | 435 | 2669 | inactive |
| Tep2 (Thioester-containing protein 2) | DRSC03451 | – | 1990 | 8163 | 326 | 2903 | inactive |
| CG16723 | DRSC15138 | – | 13888 | – | 7424 | – | inactive |
| CG14182 | DRSC10181 | – | 14481 | – | 4293 | – | inactive |
| Tap42 (Two A-associated protein of 42kDa) | DRSC02967 | – | 1620 | 5324 | 865 | 2740 | inactive |
| mRpL9 (mitochondrial ribosomal protein L9) | DRSC15678 | – | 12202 | – | 2977 | – | inactive |
| CG9759 | DRSC16558 | – | 9289 | – | 3225 | – | inactive |
| eIF2Balpha (eukaryotic translation initiation factor 2B subunit alpha) | DRSC16332 | – | 2224 | 7323 | 1043 | 1936 | inactive |
| CG13712 | DRSC08321 | – | 1552 | 8432 | 1443 | 4608 | inactive |
| CG34135 + CG11768 | DRSC12702 | – | 2852 | – | 1129 | – | inactive |
| CG43088 | DRSC19055 | – | 6599 | – | 1776 | – | inactive |
| CG43088 | DRSC21407 | – | 7.32e5 | 7.00e5 | 3.35e5 | 3.06e5 | inactive |
| Nipsnap | DRSC20169 | – | 1866 | 5520 | 961 | 2538 | inactive |
| CG7298 | DRSC10802 | – | 3025 | – | 1314 | – | inactive |
| pr (purple) | DRSC03596 | – | 11251 | – | 3762 | – | inactive |
| TTLL4B (Tubulin tyrosine ligase-like 4B) | DRSC00636 | – | 10976 | – | 4013 | – | inactive |
| Miox (Myo-inositol oxygenase) | DRSC10747 | – | 7057 | – | 2257 | – | inactive |
| nito (spenito) | DRSC05943 | – | 6306 | – | 2252 | – | inactive |
| Sf3b5 (Splicing factor 3b subunit 5) | DRSC14460 | – | 17591 | – | 3408 | – | inactive |
| Hsc70-4 (Heat shock protein 70 cognate 4) | DRSC16711 | – | 9260 | – | 1868 | – | inactive |
| Mat89Ba (Maternal transcript 89Ba) | DRSC14540 | – | 2744 | 5515 | 1421 | 1957 | inactive |
| ChLD3 (Chitin and LDLR binding deacetylase 3) | DRSC02640 | – | 2522 | 7296 | 964 | 3936 | inactive |
| CG42674 | DRSC10066 | – | 5255 | – | 1559 | – | inactive |
| CG42674 | DRSC10067 | – | 18464 | – | 5153 | – | inactive |
| CG42674 | DRSC10811 | – | 24976 | – | 6214 | – | inactive |
| CAH15 (Carbonic anhydrase 15) | DRSC04534 | – | 1533 | 5976 | 800 | 2168 | inactive |
| CG15093 | DRSC06522 | – | 20032 | – | 6073 | – | inactive |
| futsch | DRSC17688 | – | 3621 | – | 1216 | – | inactive |
| futsch | DRSC17949 | – | 23206 | – | 14439 | – | inactive |
| futsch | DRSC17952 | – | 3388 | 5224 | 1211 | 2961 | inactive |
| futsch | DRSC18543 | – | 15669 | – | 10705 | – | inactive |
| Psf1 (Partner of Sld Five 1) | DRSC08638 | – | 21117 | – | 7248 | – | inactive |
| BaraA1 + BaraA2 | DRSC05417 | – | 20096 | – | 13437 | – | inactive |
| CG3650 | DRSC04401 | – | 1600 | 7481 | 343 | 2055 | inactive |
| Cyp4ac2 (Cytochrome P450 4ac2) | DRSC03303 | – | 4739 | 9756 | 1475 | 3520 | inactive |
| CG31473 | DRSC15443 | – | 20325 | – | 5707 | – | inactive |
| DEF8 (differentially expressed in FDCP 8 homolog) | DRSC09840 | – | 3590 | – | 1383 | – | inactive |
| fru (fruitless) | DRSC16951 | Wg reporter activity raised | 18412 | – | 1328 | – | active |
| fru (fruitless) | DRSC16952 | – | 25018 | – | 7404 | – | inactive |
| fru (fruitless) | DRSC16953 | – | 17149 | 7.17e5 | 5079 | 3.66e5 | inactive |
| fru (fruitless) | DRSC21600 | – | 4.33e5 | 4.69e5 | 2.31e5 | 1.79e5 | inactive |
| Dap160 (Dynamin associated protein 160) | DRSC01834 | – | 13177 | – | 12681 | – | inactive |
| Dap160 (Dynamin associated protein 160) | DRSC03313 | – | 10349 | – | 3121 | – | inactive |
| c(3)G (crossover suppressor on 3 of Gowen) | DRSC15245 | – | 3084 | 5332 | 1766 | 1461 | inactive |
| Synd (Syndapin) | DRSC15116 | – | 15363 | – | 3185 | – | inactive |
| Ugalt (UDP-galactose transporter) | DRSC18467 | – | 18028 | – | 11451 | – | inactive |
| Spn28Dc (Serpin 28Dc) | DRSC03029 | – | 2321 | 5097 | 652 | 2778 | inactive |
| DENR (Density regulated protein) | DRSC20151 | – | 3496 | 9418 | 841 | 2282 | inactive |
| Abp1 (Actin binding protein 1) | DRSC09693 | – | 6923 | – | 2112 | – | inactive |
| CG10307 | DRSC04057 | – | 8368 | – | 2356 | – | inactive |
